According to CN105367658A:
These are yes or no findings as the source states them, for the method shown. Some results given as binding are weak or reduced against the parent protein; the word gives no strength.

Amino acid sequences for entries named in this document (tags omitted). A change or cut given only in a name is not applied to a line headed by its entry. Residues count along the entry.
UniProt Q9Y336: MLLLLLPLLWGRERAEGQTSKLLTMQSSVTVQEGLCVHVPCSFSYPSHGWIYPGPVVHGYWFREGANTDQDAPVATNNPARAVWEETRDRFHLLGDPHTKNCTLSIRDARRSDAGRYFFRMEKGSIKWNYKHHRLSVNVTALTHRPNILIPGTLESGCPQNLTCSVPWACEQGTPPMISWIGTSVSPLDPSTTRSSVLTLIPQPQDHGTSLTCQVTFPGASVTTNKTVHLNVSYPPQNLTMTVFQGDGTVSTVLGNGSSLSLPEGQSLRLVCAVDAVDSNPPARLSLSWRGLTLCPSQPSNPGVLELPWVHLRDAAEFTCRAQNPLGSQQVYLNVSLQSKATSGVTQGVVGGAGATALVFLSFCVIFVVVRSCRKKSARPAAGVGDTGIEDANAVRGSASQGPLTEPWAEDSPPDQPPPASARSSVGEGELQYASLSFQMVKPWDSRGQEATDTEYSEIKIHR
Siglec-9蛋白 (中性粒细胞): residues 18-463 of Q9Y336
重组人唾液酸结合免疫球蛋白样凝集素-9蛋白: residues 18-348 of Q9Y336

Assays:
[1] = target: Siglec-9蛋白 (中性粒细胞) (UniProt Q9Y336); experiment: Western blot of neutrophil lysate supernatant, antibody at 2 μg/mL
[2] = target: 重组人唾液酸结合免疫球蛋白样凝集素-9蛋白 (human) (UniProt Q9Y336); experiment: ELISA, recombinant human Siglec-9 coated at 2 μg/mL, antibody diluted from 2 μg/mL in 14 steps

B1: 人源抗唾液酸结合免疫球蛋白样凝集素-9抗体IgG (antibody, V domains shown)
VH: EVQLVESGAEVKKPGASVKVSCKASGYIFTGYYMHWVRQAPGQGLEWMGWINPKSGGTNYAQKFQGRVTMTRDTSISTAYMELSRLRSDDTAVYYCVRDLGATGGDYWGQGTLVTVSS
VL: ELVLTQPPSVSVSPGQTARVTCSGDALPKKYAYWYQQKSGQAPILVIYGDNKRPSGIPERFSGSSSGTMATLTISGAQVEDEADYYCYSIDRSGNRVFGGGTRLTVLQ
binding [1]: binds | binding [2]: binds
